Results taken from PubChem BioAssay AID1381 (University of Pittsburgh Molecular Library Screening Center, 2008).
The other results are listed elsewhere or left out.

Experiment: inhibitors of GR-EGFP nuclear translocation, primary screen, dynein cargo transport inhibitor project, imaging, high-content, 3617.4 mouse cells (AID 1381)
Details: stimulated with dexamethasone, 1 µM
[1] = measured here: cell count per field, at 20 µM
[2] = measured here: cytoplasmic GR-EGFP intensity, at 20 µM, stronger effect = higher value
[3] = measured here: nuclear GR-EGFP intensity, at 20 µM, stronger effect = lower value
[4] = measured here: cell count per field, at 50 µM
[5] = measured here: cytoplasmic GR-EGFP intensity, at 50 µM, stronger effect = higher value
[6] = measured here: nuclear GR-EGFP intensity, at 50 µM, stronger effect = lower value

Compound	z-score [1]	z-score [2]	z-score [3]	z-score [4]	z-score [5]	z-score [6]
O=P1(Nc2ncccn2)COc2ccccc2OC1	0.636	-0.37	-0.791	–	–	–
CN1CCCCC1COC(=O)C1(O)c2ccccc2CCc2ccccc21 (stereo not given)	-0.739	-0.178	0.356	–	–	–
COc1ccccc1OP(C)(=O)Nc1c(C)cccc1C (stereo not given)	–	–	–	-0.613	-0.131	-1.15
Nc1cccc([As](=O)(O)c2ccccc2)c1	0.587	-0.249	-0.345	–	–	–
CP(=O)(Nc1ccc(SC(F)(F)F)cc1)Oc1ccccc1 (stereo not given)	0.403	-0.31	-0.674	–	–	–
CCCOc1ccc(NP(C)(=O)Oc2ccc(Cl)cc2)cc1 (stereo not given)	-1.76	0.257	1.62	–	–	–
O=P1(Nc2ccc(Br)cn2)COc2ccccc2OC1	0.95	-0.158	-0.541	–	–	–
Cc1ccc(OCC(=O)OC2CN3CCC2CC3)cc1 (stereo not given)	–	–	–	0.651	-0.281	0.000327
O=[As](O)(c1cccs1)c1cccs1	-0.0741	-0.75	-0.321	–	–	–
Cc1nn(-c2ccccc2)c2c1P(=O)(N1CCOCC1)N(C)C(c1ccccc1)=N2 (stereo not given)	–	–	–	0.66	-0.253	0.115
CC1CCC(C(C)C)C(OP(=O)(Nc2ccccn2)c2ccccc2)C1 (stereo not given)	1.15	-0.336	-0.865	–	–	–
COc1cc(C2NCCC3(OCCO3)C2(C)C)cc(OC)c1OC.O=[N+]([O-])c1cc([N+](=O)[O-])c(O)c([N+](=O)[O-])c1 (stereo not given)	-2.2	-0.0404	1.16	–	–	–
O=[N+]([O-])c1cc([N+](=O)[O-])c(Nc2nnnn2CCO)c([N+](=O)[O-])c1	-1.3	-0.251	0.95	–	–	–
CN(C)C1(CNC(=O)c2ccc(S(C)(=O)=O)cc2)CCCCC1	-0.933	-0.198	0.558	–	–	–
CCOC(=O)C(CC)C1=NC(C)(C)Cc2ccccc21.O=[N+]([O-])c1cc([N+](=O)[O-])c(O)c([N+](=O)[O-])c1 (stereo not given)	-2.31	-0.178	0.295	–	–	–
O=C(/C=C/c1ccccc1)OC1CN2CCC1CC2 (stereo not given)	0.443	-0.289	-0.104	–	–	–
CC(C)/C=N\N=C(\N)N[N+](=O)[O-]	0.751	-0.322	-0.241	–	–	–
O=[As](O)(c1ccccc1Br)c1ccccc1Br	0.892	-0.268	-0.138	–	–	–
CC1(CBr)Cn2c(nc3ccccc3c2=O)S1 (stereo not given)	–	–	–	1.48	-0.268	-0.966
Cc1nc2ccc3ccccc3c2s1.O=[N+]([O-])c1cc([N+](=O)[O-])c(O)c([N+](=O)[O-])c1	0.568	-0.213	-0.0763	–	–	–
O=P1(Nc2ccccn2)COc2ccccc2OC1	-0.264	-0.221	0.124	–	–	–
O=[N+]([O-])c1cc([N+](=O)[O-])c(-n2nnc3ccccc32)c([N+](=O)[O-])c1	0.0302	0.826	-1.95	–	–	–
CCOP(=O)(Nc1ccc(C)cn1)OCC	-0.176	-0.278	0.291	–	–	–
Clc1n[nH]nc1-c1nn[nH][15n]1	0.114	-0.186	-0.0217	–	–	–
CC(C)(C)C(=O)NC(Sc1ncccn1)C(Cl)(Cl)Cl (stereo not given)	-2.73	-0.0268	0.961	–	–	–
CP(=O)(Nc1cccc(Br)c1)Oc1ccccc1 (stereo not given)	-0.158	-0.329	0.164	–	–	–
Cc1cc(C)cc(OP(C)(=O)Nc2ccccn2)c1 (stereo not given)	–	–	–	0.464	-0.247	-0.233
Cc1ccc(NCCc2c([N+](=O)[O-])cc([N+](=O)[O-])cc2[N+](=O)[O-])cc1	0.213	-0.148	-0.553	–	–	–

Compound	z-score [1]	z-score [2]	z-score [3]	z-score [4]	z-score [5]	z-score [6]
Nc1cccc2c([As](=O)(O)O)cccc12	0.21	-0.175	-0.292	–	–	–
CCCOP(=S)(Nc1nc(N)cc(=O)[nH]1)OCCC	-0.499	-0.272	0.69	–	–	–
Cc1ccc(C)c(NP(C)(=O)Oc2ccccc2)c1 (stereo not given)	–	–	–	0.428	-0.199	-1.04
CCOP(=O)(Nc1cccc2ccccc12)OCC	-1.37	-0.0521	1.69	–	–	–
O=C(OC1CN2CCC1CC2)c1ccc(Cl)cc1 (stereo not given)	-0.0146	-0.286	-0.151	–	–	–
COc1cc(C(=O)NCC2(N3CCOCC3)CCCCC2)cc(Cl)c1OC(C)C	0.546	-0.238	0.151	–	–	–
O=[As](O)(O)c1cccnc1	0.461	-0.29	-0.117	–	–	–
COc1ccccc1OP(C)(=O)Nc1cccc(Br)c1 (stereo not given)	-0.207	-0.795	-0.306	–	–	–
O=[As](O)(c1cccc(O)c1)c1cccc(O)c1	0.425	-0.215	-0.157	–	–	–
Cc1cccc(OCC(=O)OC2CN3CCC2CC3)c1 (stereo not given)	0.0838	-0.15	0.257	–	–	–
Cc1cc(C)cc(OP(C)(=O)Nc2ccc(C)cc2C)c1 (stereo not given)	-0.0741	0.29	-0.536	–	–	–
CCOC(=O)c1ccc(NP(C)(=O)Oc2cc(C)cc(C)c2)cc1 (stereo not given)	1.21	-0.266	-0.182	–	–	–
NC(=O)Nc1ccc([As](=O)(O)O)cc1	1.1	-0.791	-0.506	–	–	–
CN(C(=O)Cc1ccccc1)[C@@H]1CC[C@]2(CCCO2)C[C@H]1N1CCCC1	-0.265	-0.744	0.339	–	–	–
CCOP1(=S)c2c(C)nn(CCC#N)c2N=C(c2ccc(F)cc2)N1C (stereo not given)	0.107	-0.176	0.174	–	–	–
O=[N+]([O-])c1ccc2c(c1)nnn2O	–	–	–	1.34	-0.295	-0.214
CC1=NCCc2c1[nH]c1ccccc21.O=[N+]([O-])c1cc([N+](=O)[O-])c(O)c([N+](=O)[O-])c1	-0.0409	-0.188	-0.126	–	–	–
O=C(O)c1cccc(Nc2c([N+](=O)[O-])cc([N+](=O)[O-])cc2[N+](=O)[O-])c1	-0.0416	0.349	0.662	–	–	–
CCOP1(=S)c2c(C)nn(CCC#N)c2N=C(c2ccccc2F)N1C (stereo not given)	–	–	–	0.445	-0.253	0.5
O=P(Nc1nccs1)(c1ccccc1)c1nc2ccccc2s1 (stereo not given)	0.115	-0.152	-0.313	–	–	–
O=P(Nc1nccs1)(Oc1ccccc1)Oc1ccccc1	0.459	-0.196	0.199	–	–	–
CS(=O)(=O)c1cc([N+](=O)[O-])c2no[n+]([O-])c2c1	-0.104	-0.212	-0.402	–	–	–
O=C(O)COc1ccc([As](=O)(O)O)cc1[N+](=O)[O-]	1.16	-0.296	-0.41	–	–	–
Nc1ccccc1[As](=O)(O)c1ccccc1	0.282	-0.287	-0.293	–	–	–
CCOC(=O)c1ccc(NP(C)(=O)Oc2ccccc2)cc1 (stereo not given)	0.834	-0.337	-0.417	–	–	–
ClCCSc1nnc(-c2cccnc2)o1	–	–	–	0.281	-0.25	0.051
COc1ccccc1OP(C)(=O)Nc1ccc(C)cc1 (stereo not given)	-0.001	-0.181	0.372	–	–	–
